In publication PMC10366109:
No constants are given. Whether binding was seen depends on the method and setting. Binding seen in cells or lysates may run through a third protein.

Protein sequences, listed by entry. Tags and fused reporters are not part of them. Lines headed by an entry give the natural chain unless they say otherwise; changes in a name come on top.
UniProt E9Q6W4: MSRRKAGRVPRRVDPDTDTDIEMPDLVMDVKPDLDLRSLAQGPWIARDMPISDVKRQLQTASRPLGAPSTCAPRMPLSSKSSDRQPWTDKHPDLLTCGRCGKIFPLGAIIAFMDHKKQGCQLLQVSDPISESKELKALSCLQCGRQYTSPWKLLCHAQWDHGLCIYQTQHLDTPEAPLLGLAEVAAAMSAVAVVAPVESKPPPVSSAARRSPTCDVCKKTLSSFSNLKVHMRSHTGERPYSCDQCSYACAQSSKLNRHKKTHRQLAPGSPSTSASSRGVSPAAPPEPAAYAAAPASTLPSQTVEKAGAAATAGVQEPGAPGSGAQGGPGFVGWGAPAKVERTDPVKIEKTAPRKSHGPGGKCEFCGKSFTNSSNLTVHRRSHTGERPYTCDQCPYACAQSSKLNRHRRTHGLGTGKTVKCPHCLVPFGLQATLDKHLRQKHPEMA
UniProt Q9Z148: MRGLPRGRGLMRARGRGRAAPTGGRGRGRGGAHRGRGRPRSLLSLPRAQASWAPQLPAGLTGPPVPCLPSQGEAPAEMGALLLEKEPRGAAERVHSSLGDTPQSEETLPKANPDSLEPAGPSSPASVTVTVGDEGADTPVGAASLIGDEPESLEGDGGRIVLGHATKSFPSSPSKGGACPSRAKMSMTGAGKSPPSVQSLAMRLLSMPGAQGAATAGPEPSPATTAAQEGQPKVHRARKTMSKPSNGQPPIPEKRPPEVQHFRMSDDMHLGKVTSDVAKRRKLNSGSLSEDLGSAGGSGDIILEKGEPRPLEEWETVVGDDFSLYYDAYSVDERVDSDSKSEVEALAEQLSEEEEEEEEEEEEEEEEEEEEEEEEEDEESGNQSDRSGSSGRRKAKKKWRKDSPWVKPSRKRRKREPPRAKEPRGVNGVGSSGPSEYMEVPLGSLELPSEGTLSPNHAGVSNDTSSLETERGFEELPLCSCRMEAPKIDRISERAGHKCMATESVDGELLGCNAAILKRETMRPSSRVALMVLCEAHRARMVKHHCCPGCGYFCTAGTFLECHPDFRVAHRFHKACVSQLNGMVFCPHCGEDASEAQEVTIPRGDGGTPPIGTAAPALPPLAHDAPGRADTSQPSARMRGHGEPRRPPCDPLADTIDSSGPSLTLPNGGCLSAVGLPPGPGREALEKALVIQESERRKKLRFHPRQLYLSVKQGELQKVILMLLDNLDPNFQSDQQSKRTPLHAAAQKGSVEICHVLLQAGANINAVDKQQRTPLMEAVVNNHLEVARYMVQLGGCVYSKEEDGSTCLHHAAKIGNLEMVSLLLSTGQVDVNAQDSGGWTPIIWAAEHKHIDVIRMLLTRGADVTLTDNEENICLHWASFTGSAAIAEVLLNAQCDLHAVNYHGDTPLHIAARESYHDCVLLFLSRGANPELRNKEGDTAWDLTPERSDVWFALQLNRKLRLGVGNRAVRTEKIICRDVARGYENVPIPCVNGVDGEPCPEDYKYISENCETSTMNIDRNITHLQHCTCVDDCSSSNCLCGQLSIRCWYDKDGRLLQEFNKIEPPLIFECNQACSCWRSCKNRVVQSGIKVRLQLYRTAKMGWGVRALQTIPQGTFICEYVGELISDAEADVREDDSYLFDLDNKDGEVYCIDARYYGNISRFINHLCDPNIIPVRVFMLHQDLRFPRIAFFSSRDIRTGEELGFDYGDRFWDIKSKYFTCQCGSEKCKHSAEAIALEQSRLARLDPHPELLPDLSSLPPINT

Biological target: Flag-ZFP296 ΔZF4-6 (mouse) (UniProt E9Q6W4)
Assay: co-IP; Flag-ZFP296 or its deletion mutants coexpressed with Myc-G9a or Myc-GLP in HEK293T cells; nuclei extracted in 500 mM NaCl, 0.5% IGEPAL CA-630 with Cryonase nuclease, supernatant diluted 4-fold; magnetic beads with anti-Flag (or anti-Myc-tag) antibody, 3 h, 4 °C; western blot with anti-Myc-tag then anti-Flag-tag antibody

binding: no binding
Substance: Myc-G9a (from UniProt Q9Z148 1-1263) (enzyme)
